The supplement of paper PMC10331698
± gives the standard deviation of the averaged measurements. Most entries show no effect beyond the scatter of the controls.

Legend:
Experiment in all cases: level (log10 ratio to DMSO vehicle control); higher = higher biomarker level / cell amount than vehicle control
[1] = compound: C=C(C)C(=O)OCCC(F)(F)C(F)(F)C(F)(F)C(F)(F)C(F)(C(F)(F)F)C(F)(F)F [(Perfluoro-5-methylhexyl)ethyl 2-methylprop-2-enoate]; details: in DMSO
Method: (§1)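 BioMAP Diversity Plus panel of 12 human primary cell co-culture systems (3C, 4H, LPS, SAg, BT, BF4T, BE3C, CASM3C, HDF3CGF, KF3CT, MyoF, Mphg). Compounds were added 1 h before stimulation and left for 24 h (MyoF 48 h; BT 72 h for soluble read-outs or 6 d for IgG). Biomarkers were read by ELISA, cytotoxicity by SRB, PBMC viability and proliferation by Alamar Blue. Each well value was divided by the mean of 8 DMSO control wells on the same plate and log10 transformed; duplicate blinded samples were tested at 4 concentrations.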

[2] = compound: O=S(=O)(O)CCC(F)(F)C(F)(F)C(F)(F)C(F)(F)C(F)(F)C(F)(F)F [6:2 Fluorotelomer sulfonic acid]; details: in DMSO
Method: as §1

Octafluoroadipamide = compound: NC(=O)C(F)(F)C(F)(F)C(F)(F)C(F)(F)C(N)=O [Octafluoroadipamide]; details: 2200 nM; in DMSO
Method: as §1

Tetrafluorosuccinic acid = compound: O=C(O)C(F)(F)C(F)(F)C(=O)O [Tetrafluorosuccinic acid]; details: 2200 nM; in DMSO
Method: as §1

[3] = compound: OCCC(F)(F)C(F)(F)C(F)(F)C(F)(F)F [4:2 Fluorotelomer alcohol]; details: 2200 nM; in DMSO
Method: as §1

[4] = compound: O=C(O)C(F)(F)C(F)(F)C(F)(F)C(F)(F)C(F)(F)C(F)(F)C(F)(F)C(F)(F)Cl [9-Chloro-perfluorononanoic acid]; details: in DMSO
Method: as §1

[5] = compound: FC(F)(F)C(F)(F)C(F)(F)C(F)(F)C(F)(F)CCI [1-Iodo-1H,1H,2H,2H-perfluoroheptane]; details: 2200 nM; in DMSO
Method: as §1

[6] = compound: O=S(=O)(O)C(F)(F)C(F)(F)OC(F)(F)C(F)(F)F [Perfluoro(2-ethoxyethane)sulfonic acid]; details: 2200 nM; in DMSO
Method: as §1

Perfluoropinacol = compound: OC(C(F)(F)F)(C(F)(F)F)C(O)(C(F)(F)F)C(F)(F)F [Perfluoropinacol]; details: in DMSO
Method: as §1

[7] = compound: COC(=O)CCC(F)(F)C(F)(F)C(F)(F)C(F)(F)F [Methyl 2H,2H,3H,3H-perfluoroheptanoate]; details: 2200 nM; in DMSO
Method: as §1

[8] = compound: O=C(O)CCC(F)(F)C(F)(F)C(F)(F)C(F)(F)C(F)(F)F [2H,2H,3H,3H-Perfluorooctanoic acid]; details: 2200 nM; in DMSO
Method: as §1

[9] = compound: C=C(C)C(=O)OCCC(F)(F)C(F)(F)C(F)(F)C(F)(F)C(F)(F)C(F)(F)C(F)(F)C(F)(F)F [8:2 Fluorotelomer methacrylate]; details: in DMSO
Method: as §1

[10] = compound: NS(=O)(=O)C(F)(F)C(F)(F)C(F)(F)C(F)(F)C(F)(F)C(F)(F)F [Perfluorohexanesulfonamide]; details: 2200 nM; in DMSO
Method: as §1

Nonafluoropentanamide = compound: NC(=O)C(F)(F)C(F)(F)C(F)(F)C(F)(F)F [Nonafluoropentanamide]; details: 2200 nM; in DMSO
Method: as §1

Row | Test System | level (log10) ([1]; 740 nM) | level (log10) ([1]; 2200 nM) | level (log10) ([1]; 6700 nM) | level (log10) ([1]; 20000 nM) | level (log10) ([2]; 2200 nM) | level (log10) ([2]; 6700 nM) | level (log10) ([2]; 20000 nM) | level (log10) ([2]; 60000 nM) | level (log10) (Octafluoroadipamide) | level (log10) (Tetrafluorosuccinic acid) | level (log10) [3] | level (log10) ([4]; 2200 nM) | level (log10) ([4]; 6700 nM) | level (log10) ([4]; 20000 nM) | level (log10) [5] | level (log10) [6] | level (log10) (Perfluoropinacol; 2200 nM) | level (log10) (Perfluoropinacol; 6700 nM) | level (log10) (Perfluoropinacol; 20000 nM) | level (log10) [7] | level (log10) [8] | level (log10) ([9]; 740 nM) | level (log10) ([9]; 2200 nM) | level (log10) [10] | level (log10) (Nonafluoropentanamide)
1 | lMphg:M-CSF | 0.0235 ± 0.012 | 0.0115 ± 0.005 | -0.005 ± 0.042 | 0.015 ± 0.042 | -0.0075 ± 0.028 | 0.0045 ± 0.0078 | -0.023 ± 0.028 | -0.0145 ± 0.0064 | 0.002 ± 0.031 | -0.0045 ± 0.023 | -0.02 ± 0.037 | 0 ± 0.023 | -0.0055 ± 0.0021 | -0.0045 ± 0.0021 | -0.0235 ± 0.0092 | -0.002 ± 0.0028 | -0.0075 ± 0.037 | -0.0155 ± 0.04 | -0.0825 ± 0.013 | 0.0185 ± 0.032 | -0.028 ± 0.027 | 0.01 ± 0.048 | -0.003 ± 0.013 | -0.0415 ± 0.011 | 0.027 ± 0.0042
2 | lMphg:CD106/VCAM-1 | -0.0045 ± 0.0092 | -0.004 ± 0.013 | -0.0315 ± 0.011 | -0.014 ± 0.0057 | -0.006 ± 0.017 | -0.007 ± 0.011 | -0.0125 ± 0.0092 | -0.022 ± 0.0071 | 0.001 ± 0.018 | 0.006 ± 0.0099 | 0.005 ± 0.0099 | -0.0155 ± 0.013 | -0.011 ± 0.0099 | -0.016 ± 0.0071 | -0.0095 ± 0.028 | -0.0205 ± 0.033 | 0.0095 ± 0.0021 | 0.0045 ± 0.0064 | -0.077 ± 0.023 | -0.0055 ± 0.00071 | -0.0035 ± 0.016 | 0.005 ± 0.0085 | -0.0265 ± 0.0092 | -0.025 ± 0.025 | -0.01 ± 0.011
3 | 4H:CD62P/P-selectin | -0.0255 ± 0.013 | -0.0355 ± 0.00071 | -0.017 ± 0.03 | -0.02 ± 0.028 | -0.0205 ± 0.04 | -0.004 ± 0.064 | -0.003 ± 0.051 | -0.013 ± 0.054 | 0.0425 ± 0.037 | 0.025 ± 0.055 | 0.016 ± 0.027 | 0.0285 ± 0.005 | -0.001 ± 0.065 | 0.0815 ± 0.023 | 0 ± 0.045 | 0.0475 ± 0.023 | 0.0275 ± 0.022 | -0.0165 ± 0.022 | -0.217 ± 0.06 | -0.034 ± 0.051 | 0.0215 ± 0.032 | -0.0295 ± 0.073 | -0.047 ± 0.042 | 0.062 ± 0.0042 | 0.0035 ± 0.067
4 | KF3CT:CCL2/MCP-1 | -0.0035 ± 0.005 | -0.0075 ± 0.0092 | -0.0235 ± 0.0092 | -0.0125 ± 0.037 | -0.0005 ± 0.036 | 0.0125 ± 0.00071 | 0.0035 ± 0.013 | -0.0145 ± 0.043 | 0.001 ± 0.059 | -0.0145 ± 0.028 | -0.0265 ± 0.0064 | 0.0275 ± 0.066 | 0.004 ± 0.023 | 0.036 ± 0.035 | -0.0185 ± 0.019 | 0.009 ± 0.02 | 0.0145 ± 0.0092 | 0.0955 ± 0.013 | 0.211 ± 0.024 | 0.009 ± 0.071 | -0.0015 ± 0.035 | 0.007 ± 0.023 | -0.0195 ± 0.012 | -0.02 ± 0.016 | -0.002 ± 0.04
5 | BT:sIL-17F | -0.081 ± 0.18 | 0.004 ± 0.0042 | 0.004 ± 0.15 | -0.0015 ± 0.0092 | 0 ± 0.023 | 0.0005 ± 0.064 | 0.0725 ± 0.012 | 0.0155 ± 0.011 | 0.0715 ± 0.16 | -0.048 ± 0.014 | 0.052 ± 0.14 | -0.034 ± 0.062 | -0.0055 ± 0.074 | 0.011 ± 0.024 | -0.0285 ± 0.12 | 0.0025 ± 0.066 | -0.0755 ± 0.1 | -0.063 ± 0.028 | -0.23 ± 0.033 | 0.0315 ± 0.026 | 0 ± 0.064 | -0.0095 ± 0.037 | 0.089 ± 0.057 | -0.021 ± 0.079 | 0.0135 ± 0.12
6 | 3C:CCL2/MCP-1 | 0.018 ± 0.065 | -0.007 ± 0.0057 | -0.0145 ± 0.025 | 0.006 ± 0.044 | 0.0345 ± 0.012 | -0.0095 ± 0.021 | -0.017 ± 0.024 | 0.012 ± 0.0071 | 0.0115 ± 0.029 | 0.006 ± 0.034 | 0.008 ± 0.037 | 0.0045 ± 0.06 | 0.015 ± 0.054 | -0.0065 ± 0.037 | 0.013 ± 0.011 | 0.0085 ± 0.043 | 0.035 ± 0.03 | 0.092 ± 0.013 | 0.0445 ± 0.012 | 0.0165 ± 0.0092 | 0.028 ± 0.014 | -0.0125 ± 0.005 | -0.0005 ± 0.012 | 0.01 ± 0.018 | 0.016 ± 0.028
7 | HDF3CGF:CXCL8/IL-8 | -0.0065 ± 0.0092 | -0.0055 ± 0.0021 | -0.004 ± 0.0042 | 0.0025 ± 0.005 | 0.001 ± 0.013 | -0.01 ± 0.014 | -0.007 ± 0.013 | 0.008 ± 0.037 | 0.009 ± 0.021 | 0.0035 ± 0.011 | 0.0025 ± 0.0021 | -0.002 ± 0.013 | -0.0225 ± 0.011 | 0.0015 ± 0.005 | -0.0015 ± 0.012 | -0.0025 ± 0.013 | 0.0125 ± 0.0035 | 0.025 ± 0.0071 | 0.02 ± 0.0028 | -0.0025 ± 0.022 | -0.003 ± 0.0071 | 0.0065 ± 0.021 | -0.0235 ± 0.021 | -0.001 ± 0.0042 | -0.002 ± 0.0014
8 | SAg:CCL2/MCP-1 | 0.012 ± 0.027 | -0.005 ± 0.014 | -0.014 ± 0.018 | 0.0065 ± 0.033 | -0.004 ± 0.0099 | -0.019 ± 0.0085 | -0.015 ± 0.0042 | 0.0035 ± 0.019 | 0.025 ± 0.035 | 0.003 ± 0.044 | -0.0065 ± 0.043 | -0.005 ± 0.027 | 0.017 ± 0.021 | -0.0055 ± 0.005 | 0.0025 ± 0.046 | 0.018 ± 0.0014 | 0.033 ± 0.0028 | 0.078 ± 0.018 | -0.096 ± 0.0085 | 0.006 ± 0.021 | -0.003 ± 0.0099 | 0.0125 ± 0.049 | -0.0045 ± 0.028 | -0.0045 ± 0.028 | 0.012 ± 0.014
9 | SAg:SRB | 0.005 ± 0.016 | -0.0005 ± 0.0035 | -0.001 ± 0.0042 | -0.0105 ± 0.0078 | 0.009 ± 0.021 | -0.012 ± 0.0057 | -0.0045 ± 0.0021 | -0.0045 ± 0.021 | -0.006 ± 0.0057 | -0.003 ± 0.0014 | -0.0075 ± 0.0021 | 0.011 ± 0.0042 | -0.003 ± 0.0099 | -0.0105 ± 0.005 | 0.0015 ± 0.012 | 0.004 ± 0.0028 | -0.0065 ± 0.011 | -0.0285 ± 0.0078 | -0.123 ± 0.0021 | 0.012 ± 0.018 | -0.0005 ± 0.03 | 0.0095 ± 0.0064 | -0.0065 ± 0.0092 | -0.003 ± 0.0028 | 0.0005 ± 0.019
10 | CASM3C:CCL2/MCP-1 | 0.0025 ± 0.015 | 0.0025 ± 0.00071 | 0.002 ± 0.023 | 0.0105 ± 0.005 | 0.02 ± 0.033 | -0.0125 ± 0.011 | -0.01 | 0.0225 ± 0.032 | 0.009 ± 0.059 | 0.012 ± 0.021 | 0.0005 ± 0.032 | 0.019 ± 0.047 | -0.0085 ± 0.011 | -0.011 ± 0.0028 | -0.0035 ± 0.028 | 0.022 ± 0.038 | -0.007 ± 0.073 | 0.0185 ± 0.013 | 0.096 ± 0.017 | 0.0035 ± 0.023 | 0.0245 ± 0.033 | 0.0045 ± 0.039 | -0.009 ± 0.011 | -0.003 ± 0.023 | 0.0105 ± 0.0078

2 entries from above, as tab-separated lines:
Row	Test System	level (log10) ([1]; 740 nM)	level (log10) ([1]; 2200 nM)	level (log10) ([1]; 6700 nM)	level (log10) ([1]; 20000 nM)	level (log10) ([2]; 2200 nM)	level (log10) ([2]; 6700 nM)	level (log10) ([2]; 20000 nM)	level (log10) ([2]; 60000 nM)	level (log10) (Octafluoroadipamide)	level (log10) (Tetrafluorosuccinic acid)	level (log10) [3]	level (log10) ([4]; 2200 nM)	level (log10) ([4]; 6700 nM)	level (log10) ([4]; 20000 nM)	level (log10) [5]	level (log10) [6]	level (log10) (Perfluoropinacol; 2200 nM)	level (log10) (Perfluoropinacol; 6700 nM)	level (log10) (Perfluoropinacol; 20000 nM)	level (log10) [7]	level (log10) [8]	level (log10) ([9]; 740 nM)	level (log10) ([9]; 2200 nM)	level (log10) [10]	level (log10) (Nonafluoropentanamide)
3	4H:CD62P/P-selectin	-0.0255 ± 0.013	-0.0355 ± 0.00071	-0.017 ± 0.03	-0.02 ± 0.028	-0.0205 ± 0.04	-0.004 ± 0.064	-0.003 ± 0.051	-0.013 ± 0.054	0.0425 ± 0.037	0.025 ± 0.055	0.016 ± 0.027	0.0285 ± 0.005	-0.001 ± 0.065	0.0815 ± 0.023	0 ± 0.045	0.0475 ± 0.023	0.0275 ± 0.022	-0.0165 ± 0.022	-0.217 ± 0.06	-0.034 ± 0.051	0.0215 ± 0.032	-0.0295 ± 0.073	-0.047 ± 0.042	0.062 ± 0.0042	0.0035 ± 0.067
4	KF3CT:CCL2/MCP-1	-0.0035 ± 0.005	-0.0075 ± 0.0092	-0.0235 ± 0.0092	-0.0125 ± 0.037	-0.0005 ± 0.036	0.0125 ± 0.00071	0.0035 ± 0.013	-0.0145 ± 0.043	0.001 ± 0.059	-0.0145 ± 0.028	-0.0265 ± 0.0064	0.0275 ± 0.066	0.004 ± 0.023	0.036 ± 0.035	-0.0185 ± 0.019	0.009 ± 0.02	0.0145 ± 0.0092	0.0955 ± 0.013	0.211 ± 0.024	0.009 ± 0.071	-0.0015 ± 0.035	0.007 ± 0.023	-0.0195 ± 0.012	-0.02 ± 0.016	-0.002 ± 0.04
